24 molecules from article PMC10163288 can be followed below.

The other results are listed elsewhere or left out.

Sequences and labels used below:
B1: il2ra_site2_3nfp_sap_23_mot_HHH_b1_04762_000000120_0001_42_54_H_._HHH_b2_04281_af2_0001_0000100003_0000001_0_0001 (protein)
chain: SSSTEEEIEELLREVERLLKEGDLTEAAHLLMRASELVVELGDEELIRKVLELFEELARAYSSSS
B2: il2ra_site1_1z92_normal_mot_HHH_b2_05238_af2_000000252_0001_38_55_H_._HHH_b2_02957_af2_0001_0000400015_0000001_0 (protein)
chain: SSSSSTEEALEILAKALKRAERLGNERSLRRIAEFLLRQARDLGDEEAERFAEEIEEKVDSSSSS
B3: il2ra_site2_2erj_sap_16_mot_8a316d4779eb53efc793250774d75e68_0001_af2_000000043_0001_18_32_H_._HHH_b2_05644_af2_0001_0000700025_0000001_1_0001_af2pred_0001_1_af … (protein)
chain: SSSSDELERVVEELVEELGLDEEAKRILEAAVENLEEAGYNKELAKKWLEFAAESLARSKSSSSS
B4: il2ra_site2_3nfp_sap_20_mot_HHH_b2_03377_000000137_0001_25_41_H_._HHH_b1_08018_0001_0000100006_0000001_0_0001 (protein)
chain: DEAELAHFVFERGDWEAFAAVAELFTLLAHGDPEAEELVREALELLKEDPREVERLLKEIARELH
B5: il2ra_site1_3nfp_sap_11_mot_HHH_b2_07336_000000112_0001_1_16_H_._3b037dd319665088be879e1661a9b2f3_0001_0001_0000500036_0000001_0_0001 (protein)
chain: DDELQARHIEKLLKRAAGVESVEVEVSNNEIEVTFKGNDEAVKRAKEAVKILAEMLGIPVEIETE
B6: il2ra_site1_1z92_normal_mot_74bb627b62bb877a56547cee6c7a6e54_0001_000000029_0001_1_13_H_._HHH_b1_02142_0001_0000300047_0000001_0 (protein)
chain: SSSSDLERAAVELVSRIAAEFGLDWEQLKELDELAVELAERGLSEEEIREELEELAEELRSSSSS
B7: il2ra_site2_3nfp_normal_mot_HHH_b1_06646_000000103_0001_1_16_H_._15a03ae7649ebbac21f4683df9edff8e_0001_0001_0000200007_0000001_0 (protein)
chain: PVEELVREVAEILGDPRFKETVEEFLEELEKEGNEDSLEYIEAALALIVEFNDPELAERLLELLD
B8: il2ra_site1_2b5i_normal_mot_HHH_b1_01495_af2_000000196_0001_42_56_H_._774661e93fca9bd06ae450e02c4594cb_0001_1_0001_0000500020_0000001_0_af2pred_dldesign_0_af2pr … (protein)
chain: SVVDRTIEWLDRAGHPELAAACRRIAELCAAGRPEEARKLVEEAKKKYKSKFHKKLLEEVYEECL
B9: il2ra_site1_3nfp_normal_mot_HHH_b1_03004_000000248_0001_1_18_H_._HHH_b1_01445_0001_0000100007_0000001_0 (protein)
chain: SSSSSNAELRRRIDELLKELARITDPHEFEELVEEIEELIEEAGDENARRLLEELRKLFNSSSSS
B10: il2ra_site2_2erj_sap_23_mot_HHH_eva_0050_af2_000000198_0001_43_62_H_._HHH_b1_06467_0001_0000100002_0000001_0_0001 (protein)
chain: SSSSSNLRELYELANKIMHALQRNDEELARELIEEAREAIERLGSDNARELLEWLRREVNSSSSS
B11: il2ra_site2_3nfp_normal_mot_HHH_b2_05401_000000221_0001_38_56_H_._HHH_b2_03321_0001_0000200011_0000001_0 (protein)
chain: SSSSSEEEFLHSVARAAEKLAEHLEDPELREELERLAEELKEEGDPELAHEIFELAIEIFSSSSS
B12: il2ra_site1_2b5i_normal_mot_HHH_b1_08426_af2_000000046_0001_39_52_H_._HHH_b1_04114_af2_0001_0000100006_0000001_0_af2pred_dldesign_0_af2pred (protein)
chain: SSSSSDEDEEKVYDLADEALRIRKEDPEKAREILEEALKLAKAAGNAKLVAEVEALLASISSSSS
B13: il2ra_site2_3nfp_normal_mot_b0be08dbeb19038e97ce33ab5425b229_0001_000000099_0001_16_33_H_._HHH_b2_02124_0001_0000500034_0000001_0_af2pred_0001_1_af2pred_swapped (protein)
chain: SSSSNEEDKLLLVERLAELAIEHTSDEEEQEELEELLEELERKGDPRIAEELARIASEILLSSSS
B14: il2ra_site2_2erj_sap_24_mot_HHH_b1_07975_000000000_0001_41_57_H_._HHH_b1_08466_af2_0001_0000800020_0000001_0_0001_af2pred_0001_af2pred (protein)
chain: SSSSSEEEEELKEFIEELVREFGLSEEVQKELEEIARFALEQGIDEEDIKKWLKLFAEETSSSSS
B15: il2ra_site2_3nfp_normal_mot_HHH_b1_01243_000000091_0001_42_57_H_._5f20bd37ef72b54d9d5808571b4331c8_0001_0001_0000500071_0000001_0 (protein)
chain: GPSELIYELFKEDEELAFLLWALRAEVAITNDPRLEELLREALELIEEGNPEEAKEVLREALRLP
B16: il2ra_site1_1z92_sap_21_mot_HHH_b2_01043_000000048_0001_39_52_H_._HHH_b2_05877_0001_0000200009_0000001_0_0001_af2pred_0001_af2pred_1_swapped (protein)
chain: SFAEALEELIEELGNPEEAAEELVKLLEKEGVPPRDALLLVLKAAKRLGDPEVRRLIEELLRELD
B17: il2ra_site2_3nfp_normal_mot_HHH_b1_01480_000000265_0001_40_57_H_._HHH_b1_04954_0001_0000300015_0000001_0 (protein)
chain: SSSSNLLELVLLAAKRFAEEANDPEVLREIEELEEEYERHGDPRYVREAFELAQELAEKLSSSSS
B18: il2ra_site2_3nfp_normal_mot_HHH_b1_00660_af2_000000090_0001_40_57_H_._HHH_b2_05434_0001_0000200014_0000001_0_af2pred_0001_af2pred (protein)
chain: SSSSDREEVQRLLEEAEELRERGNPEEAERLLREASLVAYENNDYELFALVVDVFQKVMESSSSS
B19: il2ra_site2_3nfp_sap_31_mot_HHH_b2_02823_000000034_0001_1_21_H_._HHH_b1_01203_af2_0001_0000200012_0000001_0_0001_af2pred_0001_af2pred (protein)
chain: DVERELTQLARERNDQDVFSALADILRLLDEGVPPEEIEQEVEKIIKLAGLPPEIEELLREAVRE
B20: il2ra_site2_3nfp_sap_19_mot_HHH_b1_04824_000000235_0001_40_57_H_._HHH_b2_07252_0001_0000100005_0000001_0_0001_af2pred_0001_af2pred (protein)
chain: SSSSEEEREARELLEKARELIEEGNPEEAKQVLRRAAEVAREGNDPELFLLIAEVRRQLETSSSS
B21: il2ra_site2_2erj_sap_13_mot_HHH_b1_06160_000000008_0001_39_56_H_._HHH_b2_01373_0001_0000200008_0000001_0_0001 (protein)
chain: SSSSDRETKEAARELVEEAEENNDEELLRFLLRYLRRTYEETKDPDIEELLKLIERLLEELSSSS
B22: il2ra_site2_2erj_normal_mot_HHH_b2_07568_000000046_0001_18_34_H_._HHH_b1_08573_0001_0000300019_0000001_0 (protein)
chain: SSSDEEERIRELIELVEELIEEGDTEEAEKALREASELAFELGDFELFSILAELAELLARLSSSS
B23: il2ra_site1_3nfp_sap_16_mot_HHH_b1_04788_af2_000000082_0001_25_41_H_._HHH_b1_00195_0001_0000400021_0000001_0_0001 (protein)
chain: SSSSTEEREEVLRLVEELYRALRRGDEEEFRRLFEEARELAEEINSPVARMLIEELQKNGSSSSS
B24: il2ra_site2_3nfp_sap_31_mot_HHH_b2_01820_af2_000000083_0001_22_38_H_._60f0427eb812648398e5d60769f3809b_0001_0001_0000200020_0000001_0_0001_1 (protein)
chain: SSSSSDKEEAAAAQARALAERLEDPEERRELEELAEELEEKGDPELHRELARLIYEILASSSSSS

In the assay the target is il2ra, P01589. Kind of assay: yeast display titration.
On to B1, for which the “apparent Kd” value was “inactive: no binding seen”. In the case of B2 it was “inactive: no binding seen”; in that of B3, “inactive: no binding seen”.

On to B4, for which the “apparent Kd” value is “inactive: no binding seen”. In the case of B5 it was “inactive: no binding seen”; in that of B6, “inactive: no binding seen”; in that of B7, “inactive: no binding seen”. In the case of B8 it was “inactive: no binding seen”; in that of B9, “inactive: no binding seen”. The same measure for B10: “inactive: no binding seen”; for B11: “inactive: no binding seen”. In the case of B12, the “apparent Kd” value is “inactive: no binding seen”.

B13: the “apparent Kd” value was “inactive: no binding seen”.

Turning to B14, the “apparent Kd” value is “inactive: no binding seen”. In the case of B15 it was “inactive: no binding seen”; in that of B16, “inactive: no binding seen”. In the case of B17 it was “inactive: no binding seen”; in that of B18, “inactive: no binding seen”; in that of B19, “inactive: no binding seen”. For B20, the “apparent Kd” value is “inactive: no binding seen”. In the case of B21 it was “inactive: no binding seen”; in that of B22, “inactive: no binding seen”; in that of B23, “inactive: no binding seen”. Turning to B24, the “apparent Kd” value is “inactive: no binding seen”.
